Laboratory results from US20060052293A1.
These are yes or no findings as the source states them, for the method shown. Some entries that bind do so weakly or less than the wild type.

Amino acid sequences for entries named in this document (tags omitted). A change or cut given only in a name is not applied to a line headed by its entry.
UniProt Q00610: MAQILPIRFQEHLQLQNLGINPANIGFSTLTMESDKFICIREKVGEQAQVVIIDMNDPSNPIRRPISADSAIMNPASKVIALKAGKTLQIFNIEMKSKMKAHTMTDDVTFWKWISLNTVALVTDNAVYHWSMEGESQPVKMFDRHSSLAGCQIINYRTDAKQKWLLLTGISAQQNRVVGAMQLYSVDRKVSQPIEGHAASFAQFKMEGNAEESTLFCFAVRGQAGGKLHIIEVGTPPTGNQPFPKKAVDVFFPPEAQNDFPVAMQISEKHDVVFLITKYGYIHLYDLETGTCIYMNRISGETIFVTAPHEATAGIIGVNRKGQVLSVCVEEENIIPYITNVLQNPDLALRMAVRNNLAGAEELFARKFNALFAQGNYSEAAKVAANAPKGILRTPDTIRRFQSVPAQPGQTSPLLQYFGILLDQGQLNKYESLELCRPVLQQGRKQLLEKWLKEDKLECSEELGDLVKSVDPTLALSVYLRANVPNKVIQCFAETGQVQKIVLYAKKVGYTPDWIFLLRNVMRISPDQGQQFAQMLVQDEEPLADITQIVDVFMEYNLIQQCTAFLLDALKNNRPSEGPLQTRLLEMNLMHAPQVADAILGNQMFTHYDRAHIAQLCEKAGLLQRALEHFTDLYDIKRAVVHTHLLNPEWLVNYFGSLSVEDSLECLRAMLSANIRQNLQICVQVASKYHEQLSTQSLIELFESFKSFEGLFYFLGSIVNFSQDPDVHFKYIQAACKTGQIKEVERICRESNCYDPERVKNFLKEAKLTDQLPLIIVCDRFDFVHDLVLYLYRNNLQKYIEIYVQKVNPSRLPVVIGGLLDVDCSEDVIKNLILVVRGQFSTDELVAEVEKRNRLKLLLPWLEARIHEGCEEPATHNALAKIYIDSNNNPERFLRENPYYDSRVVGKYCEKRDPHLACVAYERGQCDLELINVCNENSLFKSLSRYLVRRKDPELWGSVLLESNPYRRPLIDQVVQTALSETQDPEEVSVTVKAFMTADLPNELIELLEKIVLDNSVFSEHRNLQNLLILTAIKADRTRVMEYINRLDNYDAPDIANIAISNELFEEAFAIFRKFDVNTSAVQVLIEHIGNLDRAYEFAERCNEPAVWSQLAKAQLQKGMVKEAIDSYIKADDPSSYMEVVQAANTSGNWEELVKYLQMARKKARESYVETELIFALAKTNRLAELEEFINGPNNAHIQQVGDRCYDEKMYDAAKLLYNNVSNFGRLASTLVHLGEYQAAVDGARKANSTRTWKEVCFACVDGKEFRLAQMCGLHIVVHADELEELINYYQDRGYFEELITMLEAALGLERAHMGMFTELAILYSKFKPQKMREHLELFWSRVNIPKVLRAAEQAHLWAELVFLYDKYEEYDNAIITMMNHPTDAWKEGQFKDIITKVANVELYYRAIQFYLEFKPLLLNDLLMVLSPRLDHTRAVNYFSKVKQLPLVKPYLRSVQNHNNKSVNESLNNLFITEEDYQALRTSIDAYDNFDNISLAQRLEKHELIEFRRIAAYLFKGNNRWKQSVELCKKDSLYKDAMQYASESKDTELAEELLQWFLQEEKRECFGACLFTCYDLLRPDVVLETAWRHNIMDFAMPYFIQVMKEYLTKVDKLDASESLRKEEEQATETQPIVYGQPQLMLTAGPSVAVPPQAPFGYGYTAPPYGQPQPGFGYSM
UniProt A2Q0Z1: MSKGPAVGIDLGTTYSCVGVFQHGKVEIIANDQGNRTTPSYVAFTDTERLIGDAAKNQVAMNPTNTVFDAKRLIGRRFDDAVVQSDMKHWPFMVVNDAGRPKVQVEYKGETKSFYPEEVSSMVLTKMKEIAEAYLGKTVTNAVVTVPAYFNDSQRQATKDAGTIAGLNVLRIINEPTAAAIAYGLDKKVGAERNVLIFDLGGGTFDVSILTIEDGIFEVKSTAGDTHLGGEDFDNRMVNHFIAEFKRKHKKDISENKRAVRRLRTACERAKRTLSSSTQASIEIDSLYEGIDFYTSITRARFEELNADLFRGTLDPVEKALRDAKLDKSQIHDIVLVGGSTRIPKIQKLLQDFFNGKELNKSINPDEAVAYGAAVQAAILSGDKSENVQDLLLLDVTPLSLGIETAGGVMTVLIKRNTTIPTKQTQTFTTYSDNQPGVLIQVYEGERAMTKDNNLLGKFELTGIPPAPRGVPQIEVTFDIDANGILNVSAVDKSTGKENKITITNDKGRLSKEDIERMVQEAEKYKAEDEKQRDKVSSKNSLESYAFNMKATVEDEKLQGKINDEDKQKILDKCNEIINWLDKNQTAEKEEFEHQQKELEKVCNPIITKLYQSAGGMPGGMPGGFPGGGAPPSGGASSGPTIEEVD
UniProt O94818: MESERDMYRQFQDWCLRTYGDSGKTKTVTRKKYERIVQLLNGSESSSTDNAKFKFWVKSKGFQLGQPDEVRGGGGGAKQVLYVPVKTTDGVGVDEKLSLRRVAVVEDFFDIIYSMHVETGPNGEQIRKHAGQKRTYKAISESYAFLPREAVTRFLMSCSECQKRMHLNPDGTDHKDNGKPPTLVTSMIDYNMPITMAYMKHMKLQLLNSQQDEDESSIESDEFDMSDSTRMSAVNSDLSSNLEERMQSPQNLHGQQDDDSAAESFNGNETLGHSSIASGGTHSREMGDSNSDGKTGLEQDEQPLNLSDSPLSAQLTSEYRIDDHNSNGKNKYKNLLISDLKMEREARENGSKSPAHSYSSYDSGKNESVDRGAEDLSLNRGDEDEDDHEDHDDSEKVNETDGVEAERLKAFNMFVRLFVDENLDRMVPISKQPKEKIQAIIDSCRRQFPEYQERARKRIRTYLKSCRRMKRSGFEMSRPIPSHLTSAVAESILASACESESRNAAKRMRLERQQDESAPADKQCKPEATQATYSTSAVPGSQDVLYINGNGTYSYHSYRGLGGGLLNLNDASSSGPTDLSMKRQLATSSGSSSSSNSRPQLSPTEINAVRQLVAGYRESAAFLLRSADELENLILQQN

Tests used:
[1] = biological target: Sos-FOXC2 hybrid protein (human full-length FOXC2, amino acids 1-501, fused to hSos from the pSos vector) (human) (UniProt Q07889); test: SRS (CytoTrap) yeast two-hybrid, compared with the MafB-MafB interaction
[2] = biological target: Sos-FOXC2 hybrid protein (human full-length FOXC2, amino acids 1-501, fused to hSos from the pSos vector) (human) (UniProt Q07889); test: SRS (CytoTrap) yeast two-hybrid; interaction strength relative to the MafB-MafB interaction (++++)

| Substance | binding [1] | binding [2] |
| --- | --- | --- |
| CLH1 (human clathrin heavy chain protein; prey clones, fused to the src myristylation signal of pMyr) (from UniProt Q00610 853-1675) | binds | binds |
| Heat Shock Cognate Protein-71 (HSC71; prey clones, fused to the src myristylation signal of pMyr) (from UniProt A2Q0Z1 127-646) | binds | binds |
| NOLP (nucleolar-localized protein; prey clone starting at D145, fused to the src myristylation signal of pMyr) (from UniProt O94818 259-638) | binds | binds |
